In patent US20240114772A1, “ORGANIC ELECTROLUMINESCENT DEVICE” (SFC CO., LTD., priority 2021, published 2024):

Experiment: Emission characteristics of solution-processed organic light emitting device
Settings: device with compound as host, dopant <BD> (3 wt %), light emitting layer spin coated from 2 wt % methyl benzoate solution, measured at 10 mA/cm2

Row | SMILES | Driving voltage (V) | Efficiency (Cd/A)
1 | CC(C)c1cc(-c2c3ccccc3c(-c3cc4ccccc4c4ccccc34)c3ccccc23)cc(C(C)C)c1 [Compound 46] | 4.62 V | 3.8 Cd/A
2 | [2H]c1c([2H])c([2H])c(-c2c3ccccc3c(-c3c(CCC)c4ccccc4c4ccccc34)c3ccccc23)c([2H])c1[2H] [Compound 55] | 4.48 V | 4.0 Cd/A
